Measured values reported in patent US12304938B2 (Eli Lilly and Company, priority 2022, dated 2025).

Test: general procedure: peptide synthesis; Sieber amide resin; 2-CTC hydrazide resin; DIC/OXYMA; HATU/DIEA for fragment coupling
Details: late stage modification step, calculated by UPLC against tirzepatide reference standard

Question: For tirzepatide, which step yield is on record?
Answer: Its step yield is “estimated to be 47%”.
